# Source: PubChem BioAssay AID493014 (National Center for Advancing Translational Sciences (NCATS), 2011)
# This is one part of the list. Shown are side measurements of this screen, not its main read-out; they come without a call. Most of these compounds were active or inconclusive in the main read-out, so they are no random draw. Potencies come from curve fits of mixed quality, noted in brackets.
# Assay: qHTS Assay to Find Inhibitors of Chronic Active B-Cell Receptor Signaling
# Settings: ABC-DLBCL IkBa-CBG/CBR reporter, luminescence ratio (green luciferase fused to IkBa over red control in TMD8 lymphoma cells), 4 h
# Summary of the method: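 Cell line TMD8 (human ABC DLBCL), stably expressing tet-inducible CBG68-IkBa fusion and CBR; IMDM/0.5% FBS; cpd up to 46 uM; dox induction, 4 h, 37C/5% CO2; dual luminescence; green/red ratio; MG132 control.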
# [1] = measured here: CBR red luminescence, cell number
# [2] = measured here: IkBa-CBG green luminescence
SMILES,AC50 [1],AC50 [2]
O=C(Nc1ccc(Cl)c(S(=O)(=O)N2CCOCC2)c1)c1ccc(OCC2CCCO2)cc1 (stereo not given),"1.26 µM [falling, full curve, poor fit]",
Cc1cc(C)nc(SCc2csc(-c3ccccc3)n2)n1,"0.82 µM [rising, full curve, poor fit]",
Cc1ccc(C(=O)Nc2nc3ccccc3[nH]2)cc1,"1 µM [falling, full curve, poor fit]",
O=C(NCc1cccnc1)Nc1cc(Cl)cc(Cl)c1,"35.5 µM [falling, partial curve, poor fit]",
CSc1nc2cc3c(cc2n1C(=O)c1ccc(C)cc1)OCCO3,"11.2 µM [falling, partial curve, poor fit]",
Cc1ccccc1-c1nc(S(=O)(=O)c2ccc(Br)cc2)c(NCc2cccnc2)o1,"13 µM [falling, partial curve, poor fit]",
O=C(CN1CCN(S(=O)(=O)c2ccc(Br)cc2)CC1)Nc1ccc(F)cc1F,"18.4 µM [falling, partial curve]",
O=c1/c(=C\c2ccc3c(c2)OCO3)sc2n1CCCN=2,"17.8 µM [falling, partial curve]",
O=C(C(=O)N1CCN(c2cccc(Cl)c2)CC1)c1c[nH]c2ccccc12,"2.24 µM [falling, full curve]",
Cc1ccc(S(=O)(=O)CCc2nc3ccccc3s2)cc1,"29.1 µM [rising, single point]",
CCN1C(=O)[C@@H]2[C@@H](c3ccc(-c4ccc(Cl)c(Cl)c4)c(OC)c3)N3CCC[C@@]3(C(=O)OC)[C@@H]2C1=O,"8.2 µM [falling, partial curve]",
CCCCCC(=O)c1c(C)[nH]c(C(=O)OCC)c1C,"16.4 µM [rising, partial curve]","18.4 µM [falling, single point]"
Cn1c(=O)n(Cc2ccccc2)c(=O)c2c1nc1n2CCCN1CCc1ccccc1,"25.9 µM [falling, single point]",
C=C(C)C1(O)OC(=O)C=C1OC (stereo not given),"7.94 µM [falling, partial curve, poor fit]",
Cn1c(-c2ccc(-c3ccccc3)cc2)c[nH]c1=S,"5.62 µM [rising, full curve]",
CCN(CC)S(=O)(=O)c1cc(NC(=O)Cn2ncc(Cl)c(Cl)c2=O)ccc1C,"8.91 µM [falling, partial curve, poor fit]",
CCCn1c(=O)c(C(=O)NCc2ccccc2Cl)c(O)c2ccccc21,"2.51 µM [rising, full curve, poor fit]",
CC(CCc1ccccc1)NC(=O)COC(=O)c1cc(NS(=O)(=O)c2ccc(Cl)c([N+](=O)[O-])c2)ccc1O (stereo not given),"16.4 µM [falling, partial curve, poor fit]",
O=C(N/N=C/c1cccc(OC2CSC2)c1)c1ccccc1O,"2.24 µM [falling, full curve]",
CCOC(=O)C1CCN(S(=O)(=O)c2ccc(Cl)cc2OC)CC1,"29.1 µM [rising, single point]",
CSc1ccc(S(=O)(=O)NCc2ccc(C)cc2)cc1,"1.64 µM [rising, partial curve, poor fit]",

SMILES,AC50 [1],AC50 [2]
O=C(O)c1ccc(NCc2nc3ccccc3n2Cc2ccccc2F)cc1,"10 µM [falling, partial curve]",
Cc1ccc(NC(=O)c2cccc3cccnc23)cc1,"14.1 µM [falling, partial curve, poor fit]",
COc1cc(C(=O)CSc2nncn2C)cc(OC)c1OC,"0.82 µM [rising, full curve, poor fit]",
Cc1nc2n(n1)C(c1ccccc1)C1=C(CC(c3ccco3)CC1=O)N2 (stereo not given),"9.2 µM [falling, partial curve, poor fit]",
CCOc1ccc(OCC)c(NC(=O)CSc2nnc(-c3cccnc3)o2)c1,"32.6 µM [rising, partial curve, poor fit]","6.51 µM [rising, partial curve, poor fit]"
N#C/C(=C\c1ccc2c(c1)OCCO2)C(=O)NC1CCCCC1,"0.259 µM [falling, full curve, poor fit]",
COC(=O)c1sc(NC(=O)COc2ccccc2C)nc1C,"22.4 µM [falling, partial curve, poor fit]",
CCOc1ccc(S(=O)(=O)N(CC(=O)Nc2cc(C)on2)Cc2ccccc2Cl)cc1,"25.1 µM [falling, single point]",
CN1CCN(C(=O)c2ccc(Oc3ccc([N+](=O)[O-])cc3)cc2)CC1,"5.62 µM [falling, single point]",
O=C(c1ccco1)N1CCCC(Nc2ccc3c(c2)OCCO3)C1 (stereo not given),"35.5 µM [falling, single point]",
CCOc1ccccc1Nc1nnc(SCC(=O)Nc2nc(-c3ccc(OC)cc3)cs2)s1,"35.5 µM [falling, partial curve, poor fit]",
COc1cc(C(C[N+](=O)[O-])c2c(N)n(C)c(=O)n(C)c2=O)ccc1O (stereo not given),"8.91 µM [falling, partial curve, poor fit]","35.5 µM [falling, partial curve, poor fit]"
COc1ccc(C(CNC(=O)c2cccc(S(=O)(=O)N3CCc4ccccc43)c2)N(C)C)cc1 (stereo not given),"29.1 µM [falling, partial curve, poor fit]",
Cc1ccnc(NC(=O)c2cccs2)c1,"3.16 µM [falling, partial curve, poor fit]",
Cn1c(C(=O)N2CCN(Cc3ccc4c(c3)OCO4)CC2)cc2c(=O)n(C)c3ccccc3c21,"0.517 µM [rising, partial curve, poor fit]",
Cc1nc2cc3sc(C)nc3cc2s1,"2.82 µM [falling, partial curve, poor fit]",
Cc1oc2c(O)c(O)ccc2c(=O)c1-c1ccccc1,"6.31 µM [rising, partial curve, poor fit]",
O=C1[C@@H]2[C@H]3CC[C@H](C3)[C@@H]2C(=O)N1O,"14.1 µM [rising, single point]",
COc1ccc(N2CCN(C(=O)c3ccc(F)cc3)CC2)c([N+](=O)[O-])c1,"35.5 µM [falling, single point]",
COCCn1c(SCC(=O)Nc2sccc2C(N)=O)nc2cc(Cl)ccc2c1=O,"4.47 µM [falling, partial curve, poor fit]",
c1ccc(-c2nccnc2-c2ccccc2)cc1,"35.5 µM [falling, single point]",

# Reprinted at random: four records from the list
SMILES,AC50 [1],AC50 [2]
CCOC(=O)C1CCN(S(=O)(=O)c2ccc(Cl)cc2OC)CC1,"29.1 µM [rising, single point]",
CSc1nc2cc3c(cc2n1C(=O)c1ccc(C)cc1)OCCO3,"11.2 µM [falling, partial curve, poor fit]",
Cn1c(C(=O)N2CCN(Cc3ccc4c(c3)OCO4)CC2)cc2c(=O)n(C)c3ccccc3c21,"0.517 µM [rising, partial curve, poor fit]",
O=C1[C@@H]2[C@H]3CC[C@H](C3)[C@@H]2C(=O)N1O,"14.1 µM [rising, single point]",

# Further structures

SMILES,AC50 [1],AC50 [2]
COc1ccc(C(=O)Nn2c(SCC(=O)NC3CCCC3)nc3ccccc3c2=O)cc1,"4.47 µM [falling, partial curve]",
CCC(C)NC(=O)Cn1cc2c(n1)CCC(C)C2 (stereo not given),"8.2 µM [rising, partial curve, poor fit]",
O=C(NC1CCCCC1)c1cc(-c2cccs2)on1,"0.501 µM [falling, full curve]",
O=C(/C=C/c1cccc(F)c1)Nc1cc(S(=O)(=O)N2CCOCC2)ccc1N1CCCC1,"25.9 µM [rising, single point]",
COc1ccc(C(=O)n2nc(-c3ccco3)nc2N)cc1,"4.61 µM [falling, partial curve, poor fit]",
Cn1c2ccccc2c2cc(C(=O)OCC(=O)N3CC(=O)Nc4ccccc43)sc21,"11.2 µM [falling, partial curve]",
O=C(NNC(=O)c1ccccc1F)c1cccs1,"35.5 µM [falling, single point]",
CC(C)CCN1C(=O)c2ccc(C(=O)Nc3ccccc3C(=O)O)cc2C1=O,"14.1 µM [falling, partial curve, poor fit]","20 µM [rising, partial curve, poor fit]"
CCOC(=O)[C@H]1[C@H]2COc3cc(OC)ccc3[C@@H]2N2C(=O)N(c3ccc(Br)cc3)C(=O)[C@@]12C,"2.82 µM [rising, partial curve, poor fit]",
C[C@H](CO)N1C[C@H](C)[C@@H](CN(C)S(=O)(=O)c2ccc(F)cc2)Oc2ccc(NS(=O)(=O)c3ccccc3)cc2C1=O,"0.58 µM [rising, full curve, poor fit]",
O=C(N/N=C/c1ccc(OC(=O)c2ccco2)cc1)c1ccccn1,"11.2 µM [falling, partial curve, poor fit]",
COC(=O)[C@H](C)NC(=O)Nc1ccc(C)c(C)c1,"18.4 µM [rising, single point]",
O=C(c1ccccc1)N1CCN(Cc2cccc(Oc3ccccc3)c2)CC1,"29.1 µM [falling, single point]",
CC1CCCN(CCOc2ccc3ccccc3c2Br)C1 (stereo not given),"35.5 µM [falling, single point]",
COCCN(CCOC)S(=O)(=O)c1ccc(C(=O)Nc2sc3c(c2C(N)=O)CCCCC3)cc1,"1.03 µM [falling, full curve]",
O=C(CNc1cccc(S(=O)(=O)N2CCCC2)c1)Nc1cccc(F)c1,"29.1 µM [falling, single point]",
O=C(c1ccncc1)N1c2ccccc2Sc2ccccc21,"35.5 µM [falling, single point]",
O=C(N=Nc1c(O)[nH]c2ccc([N+](=O)[O-])cc12)c1ccccc1[N+](=O)[O-],"15.8 µM [falling, single point]",
CNC(=O)CN1C(=O)NC(c2ccccc2)(c2ccccc2)C1=O,"6.31 µM [falling, single point]",
